According to patent US5807985A (priority 1997, dated 1998):
Some peptides are written in HELM: one residue between dots, names in brackets for other building blocks, links after the first $.

Assay: general procedure: Fmoc solid-phase peptide synthesis
Details: whole synthesis, HPLC

Substance	purity (crude or final not stated) [%]
PEPTIDE1{[GAB].[D-Mrp].[D-Mrp].F.K.[am]}$$$$V2.0	98.0
PEPTIDE1{[GAB].[D-Mrp].[D-Mrp].[D-Mrp].K.[am]}$$$$V2.0	99.0
PEPTIDE1{[GAB].[D-Mrp].[D-Mrp].[Mrp].K.[am]}$$$$V2.0	98.0
PEPTIDE1{[GAB].[D-Mrp].[D-bNal].F.K.[am]}$$$$V2.0	99.0
